Assay results taken from article PMC4559669.
Results are given in words; binding and its absence hold for the method and conditions named.

Sequences of proteins named here, by UniProt entry; tags and fusion partners are left off.
UniProt P45684: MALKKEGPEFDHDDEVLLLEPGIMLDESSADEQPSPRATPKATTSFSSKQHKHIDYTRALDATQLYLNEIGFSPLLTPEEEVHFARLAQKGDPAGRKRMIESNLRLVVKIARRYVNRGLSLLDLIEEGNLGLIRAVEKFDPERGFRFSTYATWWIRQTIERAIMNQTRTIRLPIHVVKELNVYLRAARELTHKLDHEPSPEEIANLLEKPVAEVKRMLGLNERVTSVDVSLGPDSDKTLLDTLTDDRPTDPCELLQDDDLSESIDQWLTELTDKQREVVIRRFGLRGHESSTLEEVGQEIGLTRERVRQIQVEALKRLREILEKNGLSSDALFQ

Assays:
[1] = biological target: (his)6-CrlSTM (S. Typhimurium Crl, purified) (S. Typhimurium) (UniProt Q7CR52); test: ITC; in vitro with purified proteins; conditions in Supplementary Methods; both purified
[2] = biological target: CrlSTM-T18 (Crl from S. Typhimurium fused to T18) (S. Typhimurium) (UniProt Q7CR52); test: two-hybrid; bacterial adenylate cyclase-based two hybrid (BACTH) in E. coli cya DHT1; Crl-T18 and T25-σ^S hybrids; 30 °C, 0.5 mM IPTG; β-galactosidase activity in Miller units

| binding [1] | binding [2] | Substance |
| --- | --- | --- |
| no binding |  | (his)6-σ^SPA wild type (P. aeruginosa σ^S, purified) (from UniProt P45684 1-334) |
|  | no binding | T25-σ^SPA (P. aeruginosa σ^S fused to T25) (from UniProt P45684 1-334) |
